Test results published in PubChem BioAssay AID2685 (National Center for Advancing Translational Sciences (NCATS), 2010).
Some of the results follow. Further columns of the screen follow, without active or inactive calls. The list favours compounds with an active or inconclusive main result. Potencies come from curve fits of mixed quality, noted in brackets.

Test: qHTS Assay for Lipid Storage Modulators in Drosophila S3 Cells;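 on cell number change: cells counted by Cell Tracker Red CMTPX staining in the red channel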
Conditions: BODIPY lipid droplet fluorescence, 18-24 h; for cell number change: measured here: cell count max response, cells fed with added oleic acid
How it was run: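 Laser-scanning cytometry quantifies lipid droplet accumulation (500–530 nm total intensity; droplet/cell object ratio) in oleic acid-fed (400 uM added) Drosophila S3 cells treated with a concentration series. 20 uM Triacsin C defined 100% inhibition.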

[1] = measured here: lipid fluorescence (Fed channel) AC50, cells fed with added oleic acid
[2] = measured here: cell number channel AC50, cells fed with added oleic acid

| SMILES | cell number change [%] | AC50 [1] | AC50 [2] |
| --- | --- | --- | --- |
| CCCC(=O)NC(=S)Nc1cccc(Cl)c1N1CCCC1 | -11.4 | 3.26 µM [falling, partial curve] | – |
| Cc1cc(NC(=O)CN2C(=O)c3ccccc3C2=O)no1 | -9.24 | 0.517 µM [falling, single point] | – |
| CC(=O)Nc1ccc(S(=O)(=O)N2CCCCC2C(=O)O)cc1 (stereo not drawn) | 15.3 | 0.0651 µM [falling, full curve, poor fit] | 0.058 µM [falling, single point] |
| O=C(c1ccc(-c2ccccc2)cc1)N1CCN(c2ccccc2)CC1 | 13.1 | 25.9 µM [rising, single point] | – |
| O=C(Nc1cccc(NC(=O)c2cccs2)c1)c1ccc(Br)o1 | -31.4 | 29.1 µM [falling, single point] | 32.6 µM [falling, single point] |
| CN(C(=O)CC(=O)Nc1ccc(Cl)c(Cl)c1)c1ccccc1 | – | 29.1 µM [rising, single point] | – |
| Cc1ccc(C(=O)NCCNC(=O)c2ccccn2)cc1 | – | 35.5 µM [falling, single point] | – |
| Cc1ccccc1NC(=O)Cc1nc(CN(C)CC(=O)Nc2cccc(F)c2)cs1 | -24.4 | – | – |
| Cc1cc(C(F)F)n2nc(C(=O)Nc3cccnc3Cl)nc2n1 | 1.09 | 2.91 µM [falling, partial curve, poor fit] | – |
| O=C(O)/C=C\C(=O)Nc1ccccc1C(=O)N1CCN(c2ccc(Cl)cc2)CC1 | 22.5 | 8.2 µM [falling, partial curve, poor fit] | – |
| CCOCCCNC(=S)NNC(=O)CCn1nc(C)c(Br)c1C | – | 1.84 µM [rising, partial curve] | 6.51 µM [rising, single point] |
| Cc1cc(C(=O)COC(=O)CCCN2C(=O)c3ccccc3C2=O)c(C)n1C | 1.42 | 0.0058 µM [rising, full curve, poor fit] | – |
| Cc1c(C(=O)OCc2nc3scc(-c4ccccc4)c3c(=O)[nH]2)cccc1[N+](=O)[O-] | 33.5 | – | 6.51 µM [rising, full curve, poor fit] |
| CCC(OC(=O)c1ccco1)C(=O)NC1CCCC1 (stereo not drawn) | 10.4 | 29.1 µM [rising, single point] | – |
| COc1ccc(-c2nc(S(=O)(=O)c3ccc(C)cc3)c(N3CCCC3)o2)cc1 | -104 | 4.11 µM [falling, full curve] | 4.11 µM [falling, full curve] |
| CCn1cc(C(=O)NN)c(=O)c2cc(F)c(N3CCN(C)CC3)cc21 | 9.72 | – | – |
| C/C(=N\NC(=O)CSc1nc2nc(C)cc(C)n2n1)c1ccccc1 | -15.6 | 0.291 µM [rising, full curve] | – |
| COc1ccc(NS(=O)(=O)c2cccc(NC(=O)C3=NN(c4ccccc4)C(=O)CC3)c2)cc1 | -44.6 | 6.51 µM [falling, single point] | 14.6 µM [falling, partial curve, poor fit] |
| COc1ccc(OCCCC(=O)Nc2ccc(N3CCOCC3)cc2)cc1 | 7.93 | 20.6 µM [rising, partial curve, poor fit] | – |

Some of these compounds in order of molecular weight, ascending.

| SMILES | cell number change [%] | AC50 [1] | AC50 [2] |
| --- | --- | --- | --- |
| CN(C(=O)CC(=O)Nc1ccc(Cl)c(Cl)c1)c1ccccc1 | – | 29.1 µM [rising, single point] | – |
| O=C(Nc1cccc(NC(=O)c2cccs2)c1)c1ccc(Br)o1 | -31.4 | 29.1 µM [falling, single point] | 32.6 µM [falling, single point] |
| O=C(O)/C=C\C(=O)Nc1ccccc1C(=O)N1CCN(c2ccc(Cl)cc2)CC1 | 22.5 | 8.2 µM [falling, partial curve, poor fit] | – |

Following part

| SMILES | cell number change [%] | AC50 [1] | AC50 [2] |
| --- | --- | --- | --- |
| O=[N+]([O-])c1ccc(S(=O)(=O)NCC(c2cccnc2)N2CCOCC2)cc1 (stereo not drawn) | 26.2 | 29.1 µM [rising, single point] | – |
| COc1ccccc1NS(=O)(=O)c1cc(NC(C)=O)ccc1N1CCCCC1 | 36.9 | – | 2.59 µM [rising, full curve] |
| COc1ccc(S(=O)(=O)N(C)CC(=O)Nc2c(F)cccc2F)cc1 | 51.1 | – | 18.4 µM [rising, single point] |
| Cc1ccc(C(F)(F)F)cc1NC(N)=S | -1.55 | – | 0.00517 µM [falling, full curve, poor fit] |
| COc1ccc(CNC(=O)CN(C(=O)CCC(=O)Nc2ccccn2)c2cccc(C)c2C)cc1 | 12.5 | 6.51 µM [rising, single point] | – |
| COCc1cc(C)nc(SCC(=O)N2CCC(C)CC2)c1C#N | – | 6.51 µM [rising, single point] | 6.51 µM [rising, single point] |
| C/C(=C\c1ccccc1)C(=O)Nc1nc2ccc([N+](=O)[O-])cc2s1 | 3.06 | 1.16 µM [falling, full curve] | – |
| O=C(c1cc2ccccc2o1)N1CCN=C1SCc1cccnc1 | -15 | – | – |
| Cc1nc2ccc([N+](=O)[O-])cc2s1 | -24.4 | – | – |
| CN(C)S(=O)(=O)c1cccc(C(=O)Nc2ccccc2)c1 | 42.3 | 0.058 µM [rising, full curve, poor fit] | – |
| COc1cccc(CN2CCNC(=O)C2CC(=O)NC2Cc3ccccc3C2)c1 (stereo not drawn) | -22.8 | 29.1 µM [falling, single point] | – |
| N/C(=N\OC(=O)c1cc(-c2ccccc2)nc2ccccc12)c1cccnc1 | 16.7 | – | 3.26 µM [rising, single point] |
| O=S(=O)(c1ccccc1)c1cnc(-c2ccccc2)nc1N1CCCCC1 | 14.4 | 2.31 µM [rising, full curve] | – |
| CC1COC2C(O1)N(S(C)(=O)=O)CCN2S(C)(=O)=O (stereo not drawn) | -26.8 | – | 0.0326 µM [falling, full curve, poor fit] |
| CN1C(=O)[C@@H]2[C@H](C1=O)[C@@H]1C(=O)Nc3ccccc3C(=O)N1[C@@H]2c1ccc(Br)cc1 | 5.02 | 1.64 µM [falling, partial curve, poor fit] | – |
| COc1cccc(C2/C(=C(\O)c3ccc4c(c3)OCCO4)C(=O)C(=O)N2CCCN2CCOCC2)c1OC (stereo not drawn) | 32.3 | – | 29.1 µM [rising, single point] |
| Nc1c(-c2ccc(F)cc2)cnn1C1CCS(=O)(=O)C1 (stereo not drawn) | 1.47 | 3.26 µM [falling, full curve] | – |
| N#Cc1ccccc1OCC(=O)OCC(=O)c1ccc[nH]1 | -5.49 | 0.82 µM [falling, full curve] | 0.82 µM [falling, partial curve] |
